The target of assay [1] is β3 integrin subunit (human (endogenous in fetal pancreas)) (UniProt P05106). In words: co-IP; detergent extracts (1% Brij 96, 25 mM Hepes pH 7.5, 150 mM NaCl, 5 mM MgCl2) of human embryonic pancreatic explants; 700 µg protein; immunoprecipitation with rabbit polyclonal anti-α2, -α3, -α5, -β3, anti-Netrin-4 or rabbit IgG at 4°C overnight; Western blotting for Netrin-4.
In assay [2] the target is integrin α2β1 (human (endogenous in fetal pancreas)) (UniProt P17301+P05556). Described as above.

Amino acid sequences for entries named in this document (tags omitted). A change or cut given only in a name is not applied to a line headed by its entry. Residues count along the entry.
UniProt P05106, residues 27-788: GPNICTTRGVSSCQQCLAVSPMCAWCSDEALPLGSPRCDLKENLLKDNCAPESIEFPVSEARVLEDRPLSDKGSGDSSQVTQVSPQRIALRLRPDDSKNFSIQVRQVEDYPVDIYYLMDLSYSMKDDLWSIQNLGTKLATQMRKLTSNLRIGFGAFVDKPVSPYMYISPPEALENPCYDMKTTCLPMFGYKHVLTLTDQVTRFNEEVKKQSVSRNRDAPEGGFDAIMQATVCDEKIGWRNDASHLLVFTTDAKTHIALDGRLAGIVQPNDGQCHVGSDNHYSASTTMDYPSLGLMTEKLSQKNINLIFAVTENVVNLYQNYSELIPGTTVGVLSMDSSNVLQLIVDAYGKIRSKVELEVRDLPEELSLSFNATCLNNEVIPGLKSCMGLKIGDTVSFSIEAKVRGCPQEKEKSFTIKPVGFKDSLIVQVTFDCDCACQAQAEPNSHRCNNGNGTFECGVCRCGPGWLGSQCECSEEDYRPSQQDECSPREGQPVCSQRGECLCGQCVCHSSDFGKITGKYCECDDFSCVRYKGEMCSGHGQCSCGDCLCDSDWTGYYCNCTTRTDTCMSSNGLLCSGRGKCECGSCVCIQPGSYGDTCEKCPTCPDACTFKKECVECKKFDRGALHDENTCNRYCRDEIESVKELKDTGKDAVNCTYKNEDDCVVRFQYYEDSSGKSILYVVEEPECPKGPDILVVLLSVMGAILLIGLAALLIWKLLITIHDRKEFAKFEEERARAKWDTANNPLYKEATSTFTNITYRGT
UniProt P17301: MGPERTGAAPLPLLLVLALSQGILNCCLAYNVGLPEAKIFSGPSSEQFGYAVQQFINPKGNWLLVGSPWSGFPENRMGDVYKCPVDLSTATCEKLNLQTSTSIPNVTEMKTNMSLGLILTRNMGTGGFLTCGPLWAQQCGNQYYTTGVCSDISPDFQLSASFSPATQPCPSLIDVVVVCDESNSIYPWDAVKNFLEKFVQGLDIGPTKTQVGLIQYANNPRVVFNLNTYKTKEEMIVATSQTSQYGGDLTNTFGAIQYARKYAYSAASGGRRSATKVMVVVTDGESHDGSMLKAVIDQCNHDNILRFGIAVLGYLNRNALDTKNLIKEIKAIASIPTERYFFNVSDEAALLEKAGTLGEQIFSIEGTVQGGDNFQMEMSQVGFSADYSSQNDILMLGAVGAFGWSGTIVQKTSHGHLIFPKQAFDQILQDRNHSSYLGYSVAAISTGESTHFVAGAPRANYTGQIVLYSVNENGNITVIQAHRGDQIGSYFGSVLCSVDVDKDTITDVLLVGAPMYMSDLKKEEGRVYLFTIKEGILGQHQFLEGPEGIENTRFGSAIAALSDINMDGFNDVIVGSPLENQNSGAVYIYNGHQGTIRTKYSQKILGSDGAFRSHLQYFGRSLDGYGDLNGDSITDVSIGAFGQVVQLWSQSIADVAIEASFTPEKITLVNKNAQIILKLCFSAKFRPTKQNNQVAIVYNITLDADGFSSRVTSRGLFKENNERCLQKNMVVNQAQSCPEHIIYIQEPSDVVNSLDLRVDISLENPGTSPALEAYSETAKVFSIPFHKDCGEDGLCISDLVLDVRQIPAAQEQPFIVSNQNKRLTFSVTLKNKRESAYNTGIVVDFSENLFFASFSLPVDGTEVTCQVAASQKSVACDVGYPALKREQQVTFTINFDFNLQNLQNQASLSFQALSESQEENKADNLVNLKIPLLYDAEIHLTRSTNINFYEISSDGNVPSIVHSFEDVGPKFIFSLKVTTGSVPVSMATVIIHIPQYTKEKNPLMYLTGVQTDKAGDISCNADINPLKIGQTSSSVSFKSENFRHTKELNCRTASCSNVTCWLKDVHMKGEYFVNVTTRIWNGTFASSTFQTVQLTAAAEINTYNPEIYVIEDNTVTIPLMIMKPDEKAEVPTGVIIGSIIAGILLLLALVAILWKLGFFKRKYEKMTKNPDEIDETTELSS
UniProt P05556: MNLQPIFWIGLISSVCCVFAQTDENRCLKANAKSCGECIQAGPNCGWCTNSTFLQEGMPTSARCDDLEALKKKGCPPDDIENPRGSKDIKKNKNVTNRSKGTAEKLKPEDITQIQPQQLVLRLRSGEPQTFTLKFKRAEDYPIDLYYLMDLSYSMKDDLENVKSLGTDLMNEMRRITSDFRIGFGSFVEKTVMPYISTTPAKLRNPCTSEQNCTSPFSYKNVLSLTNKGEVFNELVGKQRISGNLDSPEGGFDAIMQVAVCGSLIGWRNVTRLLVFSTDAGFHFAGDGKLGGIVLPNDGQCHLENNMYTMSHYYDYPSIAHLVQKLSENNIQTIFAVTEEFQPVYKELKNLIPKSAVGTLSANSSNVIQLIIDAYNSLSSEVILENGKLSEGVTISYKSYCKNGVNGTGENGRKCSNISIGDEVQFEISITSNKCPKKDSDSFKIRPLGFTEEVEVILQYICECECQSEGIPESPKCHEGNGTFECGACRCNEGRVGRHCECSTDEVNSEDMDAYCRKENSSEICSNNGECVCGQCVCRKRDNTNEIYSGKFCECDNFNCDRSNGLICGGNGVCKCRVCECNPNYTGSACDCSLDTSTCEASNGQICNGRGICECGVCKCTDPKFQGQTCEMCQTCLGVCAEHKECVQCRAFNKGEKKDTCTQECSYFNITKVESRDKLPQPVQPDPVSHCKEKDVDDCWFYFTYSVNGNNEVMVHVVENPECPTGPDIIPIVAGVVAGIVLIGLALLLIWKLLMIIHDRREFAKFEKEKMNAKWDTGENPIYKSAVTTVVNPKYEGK

No constants are given. Whether binding was seen depends on the method and setting. In cells and extracts the contact can be indirect. Some binding calls cover weakened binding; strength is not graded here.

B1: Netrin-4 (protein, UniProt Q9HB63 19-628)
chain: GLSGVAGVSSRCEKACNPRMGNLALGRKLWADTTCGQNATELYCFYSENTDLTCRQPKCDKCNAAYPHLAHLPSAMADSSFRFPRTWWQSAEDVHREKIQLDLEAEFYFTHLIVMFKSPRPAAMVLDRSQDFGKTWKPYKYFATNCSATFGLEDDVVKKGAICTSKYSSPFPCTGGEVIFKALSPPYDTENPYSAKVQEQLKITNLRVQLLKRQSCPCQRNDLNEEPQHFTHYAIYDFIVKGSCFCNGHADQCIPVHGFRPVKAPGTFHMVHGKCMCKHNTAGSHCQHCAPLYNDRPWEAADGKTGAPNECRTCKCNGHADTCHFDVNVWEASGNRSGGVCDDCQHNTEGQYCQRCKPGFYRDLRRPFSAPDACKPCSCHPVGSAVLPANSVTFCDPSNGDCPCKPGVAGRRCDRCMVGYWGFGDYGCRPCDCAGSCDPITGDCISSHTDIDWYHEVPDFRPVHNKSEPAWEWEDAQGFSALLHSGKCECKEQTLGNAKAFCGMKYSYVLKIKILSAHDKGTHVEVNVKIKKVLKSTKLKIFRGKRTLYPESWTDRGCTCPILNPGLEYLVAGHEDIRTGKLIVNMKSFVQHWKPSLGRKVMDILKRECK
For the molecule B1, the results for the binding entry in assay [1] and in assay [2] were “no binding” and “binds”, respectively.

(Values after PMC3146510.)
